For at least one compound, name, drawing or mass did not settle the structure.
Target: T1, human ABCG1 (Homo sapiens, UniProt P45844)
T1 construct: made in house; host or cells: Sf9 insect cells (baculovirus), isolated membranes
Experiment: vanadate-sensitive ATPase activity of ABCG1 in isolated Sf9 membranes
Format: biochemical
Conditions: 3.3 mM MgATP
Description: Recombinant baculoviruses carrying transporter cDNA were generated with BaculoGold Transfection Kit (Pharmingen), in accordance with the manufacturer's protocol. The titer of virus supernatants were determined in order to express the same amount of each proteins, Sf9 (Spodoptera frugiperda ovarian) cells (Invitrogen) were infected and cultured according to the procedures described previously (19). Briefly, about 3×10^7 cells were infected with 3 ml of virus supernatant in case of homodimer expression and 1.5-1.5 ml of virus supernatants in case of heterodimer expression. The virus-infected Sf9 cells were cultured in T150 culture flasks with 30 ml of medium for the times indicated. […]
The ATPase activity of the isolated Sf9 cell membranes was estimated by measuring inorganic phosphate liberation. Membrane suspensions (about 20 μg of membrane protein, as determined by a modified Lowry method) were incubated at 37° C. for 20-min in 0.15 ml of a medium containing 40 mM MOPS-Tris (pH 7.0), 0.5 mM EGTA-Tris (pH 7.0), 2 mM dithiothreitol, 50 mM KCl, 1 mM ouabain and 5 mM sodium azide, and the ATPase reaction was started by the addition of 3.3 mM MgATP. […] The reactions were stopped by the addition of 0.1 ml of 5% SDS solution and the amount of inorganic phosphate determined immediately. Inorganic phosphate was measured by colorimetric reaction (19). […]

NC(=NCc1ccccc1)NC(=O)c1nc(Cl)c(N)nc1N [Benzamil, benzamil]
effect on ABCG1 ATPase activity (in words): decreased the ABCG1 ATPase activity to the control level

— patent US20080187935A1, “Homo and Heterodimer Proteins of the Abcg Family, Methods For Detection and Screening Modulators Thereof” (priority 2004, published 2008)
